The text below walks through data of paper PMC6633398.

Protein sequences, listed by entry. Tags and fused reporters are not part of them. Lines headed by an entry give the natural chain unless they say otherwise; changes in a name come on top.
UniProt O43681: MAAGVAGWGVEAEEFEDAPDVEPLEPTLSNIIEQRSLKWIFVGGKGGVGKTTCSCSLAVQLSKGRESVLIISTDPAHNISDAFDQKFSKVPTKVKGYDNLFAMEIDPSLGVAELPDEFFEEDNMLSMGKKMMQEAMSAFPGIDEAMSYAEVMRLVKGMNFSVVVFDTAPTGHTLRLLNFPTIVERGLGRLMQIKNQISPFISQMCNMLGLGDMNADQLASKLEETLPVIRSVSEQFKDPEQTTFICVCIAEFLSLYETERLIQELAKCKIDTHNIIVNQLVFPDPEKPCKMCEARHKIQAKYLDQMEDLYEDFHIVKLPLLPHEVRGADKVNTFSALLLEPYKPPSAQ
UniProt Q14789: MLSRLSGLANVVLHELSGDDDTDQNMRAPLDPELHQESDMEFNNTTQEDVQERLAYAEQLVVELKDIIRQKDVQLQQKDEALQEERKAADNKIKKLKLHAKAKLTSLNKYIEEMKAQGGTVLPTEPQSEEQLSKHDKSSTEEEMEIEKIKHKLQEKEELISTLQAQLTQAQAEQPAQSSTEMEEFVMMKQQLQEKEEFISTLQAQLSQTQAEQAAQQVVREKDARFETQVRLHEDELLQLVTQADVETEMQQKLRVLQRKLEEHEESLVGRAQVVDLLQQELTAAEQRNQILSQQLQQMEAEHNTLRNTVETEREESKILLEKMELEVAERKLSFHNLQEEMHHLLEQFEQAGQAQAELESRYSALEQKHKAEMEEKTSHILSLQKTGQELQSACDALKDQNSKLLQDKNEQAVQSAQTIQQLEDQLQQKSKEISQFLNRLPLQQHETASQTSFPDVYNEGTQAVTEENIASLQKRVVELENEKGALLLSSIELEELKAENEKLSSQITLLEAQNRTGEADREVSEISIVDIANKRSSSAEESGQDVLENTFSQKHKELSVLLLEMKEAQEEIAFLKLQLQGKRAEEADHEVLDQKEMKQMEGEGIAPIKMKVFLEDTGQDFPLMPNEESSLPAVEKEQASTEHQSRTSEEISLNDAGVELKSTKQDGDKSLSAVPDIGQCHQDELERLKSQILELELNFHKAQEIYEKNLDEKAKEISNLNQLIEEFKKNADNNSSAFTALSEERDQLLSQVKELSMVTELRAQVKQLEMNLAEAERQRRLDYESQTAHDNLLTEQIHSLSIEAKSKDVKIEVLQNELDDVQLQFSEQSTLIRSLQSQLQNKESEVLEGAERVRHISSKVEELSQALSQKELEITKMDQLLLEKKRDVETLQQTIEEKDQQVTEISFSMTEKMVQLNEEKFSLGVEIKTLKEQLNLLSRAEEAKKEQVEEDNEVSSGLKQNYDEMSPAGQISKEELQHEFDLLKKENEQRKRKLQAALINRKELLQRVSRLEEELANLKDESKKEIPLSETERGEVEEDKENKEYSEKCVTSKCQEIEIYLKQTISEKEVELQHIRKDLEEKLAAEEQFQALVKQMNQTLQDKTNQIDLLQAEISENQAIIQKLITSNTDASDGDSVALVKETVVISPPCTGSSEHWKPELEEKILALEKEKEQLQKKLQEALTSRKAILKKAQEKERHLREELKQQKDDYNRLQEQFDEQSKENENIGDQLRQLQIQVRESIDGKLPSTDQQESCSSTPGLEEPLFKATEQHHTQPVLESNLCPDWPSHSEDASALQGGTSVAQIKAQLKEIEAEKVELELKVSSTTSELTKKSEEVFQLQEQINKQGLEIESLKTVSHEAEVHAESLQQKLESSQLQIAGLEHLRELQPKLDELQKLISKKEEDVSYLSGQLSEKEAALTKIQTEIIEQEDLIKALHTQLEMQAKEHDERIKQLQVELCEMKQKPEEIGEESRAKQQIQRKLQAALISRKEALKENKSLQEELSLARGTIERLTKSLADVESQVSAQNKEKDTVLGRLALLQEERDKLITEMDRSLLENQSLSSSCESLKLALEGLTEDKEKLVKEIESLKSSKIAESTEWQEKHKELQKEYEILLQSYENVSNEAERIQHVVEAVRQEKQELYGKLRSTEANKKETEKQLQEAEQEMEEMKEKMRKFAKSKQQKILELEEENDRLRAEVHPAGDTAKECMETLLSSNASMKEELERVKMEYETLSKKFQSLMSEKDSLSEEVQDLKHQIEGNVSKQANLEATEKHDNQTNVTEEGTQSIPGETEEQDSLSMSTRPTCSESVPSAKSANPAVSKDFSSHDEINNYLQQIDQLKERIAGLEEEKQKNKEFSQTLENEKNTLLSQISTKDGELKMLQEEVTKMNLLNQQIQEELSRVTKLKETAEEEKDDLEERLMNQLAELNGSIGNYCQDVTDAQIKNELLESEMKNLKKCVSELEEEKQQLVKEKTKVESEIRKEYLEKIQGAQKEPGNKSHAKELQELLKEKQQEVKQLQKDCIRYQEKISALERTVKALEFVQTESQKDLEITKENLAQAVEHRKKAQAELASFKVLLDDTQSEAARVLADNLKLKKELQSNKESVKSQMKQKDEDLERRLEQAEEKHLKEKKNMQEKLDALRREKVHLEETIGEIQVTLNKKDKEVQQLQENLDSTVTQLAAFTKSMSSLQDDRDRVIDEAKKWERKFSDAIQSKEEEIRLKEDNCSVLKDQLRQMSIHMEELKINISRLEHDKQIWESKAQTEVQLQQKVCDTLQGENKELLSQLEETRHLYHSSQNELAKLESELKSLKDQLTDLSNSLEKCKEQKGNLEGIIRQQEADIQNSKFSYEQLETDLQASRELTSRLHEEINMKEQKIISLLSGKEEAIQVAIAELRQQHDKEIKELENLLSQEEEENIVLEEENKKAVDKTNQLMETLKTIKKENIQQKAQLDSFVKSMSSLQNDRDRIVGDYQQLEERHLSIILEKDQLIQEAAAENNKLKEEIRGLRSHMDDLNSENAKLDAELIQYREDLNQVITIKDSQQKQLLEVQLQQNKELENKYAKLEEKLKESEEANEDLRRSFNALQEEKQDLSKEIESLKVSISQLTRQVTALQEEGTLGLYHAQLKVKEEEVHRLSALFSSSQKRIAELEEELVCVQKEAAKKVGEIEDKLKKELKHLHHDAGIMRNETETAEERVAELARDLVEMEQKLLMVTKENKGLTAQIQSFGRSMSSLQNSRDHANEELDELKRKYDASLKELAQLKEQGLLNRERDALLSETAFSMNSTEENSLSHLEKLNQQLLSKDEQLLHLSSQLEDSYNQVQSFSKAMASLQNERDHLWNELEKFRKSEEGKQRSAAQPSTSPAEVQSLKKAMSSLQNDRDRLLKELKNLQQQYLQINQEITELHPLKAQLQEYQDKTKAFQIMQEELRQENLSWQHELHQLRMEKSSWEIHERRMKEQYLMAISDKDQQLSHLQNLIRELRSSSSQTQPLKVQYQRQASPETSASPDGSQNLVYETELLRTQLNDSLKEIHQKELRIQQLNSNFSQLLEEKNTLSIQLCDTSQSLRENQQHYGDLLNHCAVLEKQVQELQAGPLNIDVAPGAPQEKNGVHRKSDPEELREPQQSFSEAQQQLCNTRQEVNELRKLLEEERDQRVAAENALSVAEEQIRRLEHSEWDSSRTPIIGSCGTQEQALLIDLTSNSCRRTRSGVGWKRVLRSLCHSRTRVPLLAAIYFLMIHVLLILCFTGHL
UniProt O95292: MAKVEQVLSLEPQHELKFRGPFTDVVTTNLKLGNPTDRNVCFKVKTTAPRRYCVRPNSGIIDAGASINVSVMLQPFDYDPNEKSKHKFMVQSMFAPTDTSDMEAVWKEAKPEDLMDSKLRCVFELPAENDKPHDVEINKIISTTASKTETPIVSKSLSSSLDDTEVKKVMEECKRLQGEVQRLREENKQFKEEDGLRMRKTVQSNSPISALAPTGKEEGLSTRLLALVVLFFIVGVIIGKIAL

Where two headings read alike, the source gives them in different places. Results are given in words; binding and its absence hold for the method and conditions named. Binding seen in cells or lysates may run through a third protein. These calls come from enrichment with a bait or labelling near it, and not all partners need be listed.

In assay [1] the target is c-Myc–TRC40_(D74E), ATPase-impaired trap mutant of TRC40 (UniProt O43681).
Assay [2] has the same target. This is another data set of the same source.

Take “giantin (also known as GOLGB1) (from UniProt Q14789 1-3259)”: the binding result in assay [1] was “binds”.
Consider “vesicle-associated membrane-protein-associated protein VAPB (from UniProt O95292 1-243)”, for which the binding result in assay [2] is “binds”.
